At least one structure is not confirmed: it was looked up by name or label, or the drawing left a doubt.
Test system: rats subjected to hemorrhagic injury (HI)
Assay: Survival after hemorrhagic injury without resuscitation
Type: in vivo, rat
Details: for survival: DCA 1, 10, 25 mg/kg, without resuscitation, p<0.05 versus HI+Veh, all curves, FIG. 5

## O=C(O)C(Cl)Cl [dichloroacetate]
  survival: significant salutary effect
Listed as DCA
  survival: improved survival
DCA, rat model of hemorrhagic shock
  mitochondrial function: enhanced mitochondrial function

— US20180169085A1, “Combination Therapy for Hemorrhagic Injury” (Augusta University Reserch Institute, Inc., priority 2016, published 2018)
